{"sequences": {"note": "Protein sequences, listed by entry. Tags and fused reporters are not part of them. Lines headed by an entry give the natural chain unless they say otherwise; changes in a name come on top.", "UniProt P51450": "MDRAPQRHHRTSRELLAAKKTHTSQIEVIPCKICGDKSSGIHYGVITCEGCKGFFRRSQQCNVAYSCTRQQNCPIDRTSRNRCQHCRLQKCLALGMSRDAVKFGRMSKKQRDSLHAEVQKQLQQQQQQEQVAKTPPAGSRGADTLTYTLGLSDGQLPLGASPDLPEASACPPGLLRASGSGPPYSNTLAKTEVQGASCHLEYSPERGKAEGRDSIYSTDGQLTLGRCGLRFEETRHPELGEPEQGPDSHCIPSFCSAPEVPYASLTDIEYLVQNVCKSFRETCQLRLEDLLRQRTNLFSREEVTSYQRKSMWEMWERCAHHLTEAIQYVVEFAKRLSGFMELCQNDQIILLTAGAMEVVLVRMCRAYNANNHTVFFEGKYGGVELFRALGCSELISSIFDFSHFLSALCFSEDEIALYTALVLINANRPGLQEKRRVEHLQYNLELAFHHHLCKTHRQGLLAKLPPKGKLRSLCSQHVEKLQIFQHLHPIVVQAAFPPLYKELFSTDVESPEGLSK"}, "source": "PubChem BioAssay AID2551", "about": "(National Center for Advancing Translational Sciences (NCATS), 2010)", "note": "Among all 310,000 compounds or so, about 17,000 (5.5%) were called active. The shares of active, inactive and inconclusive entries below differ from those in the screen. Calls follow the shape of the dose curve; as a rule, active = well fitted inhibition curve with a large enough effect; inconclusive = small, poorly fitted or top-dose-only effect, or effect the other way; inactive = no such curve, though single readings can be large or run the other way. A potency beside an inconclusive call is a rough fit, not a confirmed value. Potency is read from the fitted curve at half-maximal effect.", "data": [{"target": "Nuclear receptor ROR-gamma (Mus musculus) (UniProt P51450)", "test": "qHTS for inhibitors of ROR gamma transcriptional activity; also: nearly all actives have a fitted effect of over 60% in size", "settings": "Drosophila S2 Gal4-RORgamma UAS-luciferase reporter, 20 h; series mostly up to 53.6 µM", "how_it_was_run": "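Using a luciferase readout, inhibitors were identified by reduced reporter activity in Drosophila cells coexpressing a copper-inducible Gal4–ROR gamma fusion and UAS-driven Photinus luciferase, incubated 20 hr after 700 uM copper sulfate.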", "values": [{"smiles": "O=C(NCc1cccnc1)c1cccs1", "Potency": "inactive"}, {"smiles": "Cc1ccc(S(=O)(=O)/N=C(\\N)Nc2nc(C)c3cc(C)ccc3n2)cc1", "Potency": "inactive"}, {"smiles": "C=CCOc1cccc(C(=O)N2CCCC(Nc3ccc4c(c3)OCCO4)C2)c1", "note": "(centres undefined)", "Potency": "inconclusive: 35.5 µM [activator, single point]"}, {"smiles": "O=C(CCC(=O)N1CCOc2ccccc21)NCCCN1CCN(Cc2ccccc2)CC1", "Potency": "inactive"}, {"smiles": "CCC(NC(=O)Cn1cnc2c(=O)n(C)c(=O)n(C)c21)c1ccccc1", "note": "(centres undefined)", "Potency": "inconclusive: 35.5 µM [activator, single point]"}, {"smiles": "COc1ccc(-c2csc3ncnc(Cl)c23)cc1", "Potency": "inconclusive: 4.47 µM [inhibitor, partial curve]"}, {"smiles": "COc1ccc(Cn2c(=S)[nH]c3ccccc3c2=O)cc1", "Potency": "active: 8.91 µM"}, {"smiles": "Cc1noc2ncnc(N3CCN(c4cccc(Cl)c4)CC3)c12", "Potency": "inconclusive: 10 µM [inhibitor, single point]"}, {"smiles": "CCCn1c(-c2cccs2)nc2ccccc21", "Potency": "active: 4.47 µM"}, {"smiles": "COc1cccc(/C=N/Nc2ncc(C(F)(F)F)cc2Cl)c1O", "Potency": "active: 1.26 µM"}, {"smiles": "O=C(Nc1ccc(-c2nc3ccccc3o2)cc1)C1CCCO1", "note": "(centres undefined)", "Potency": "inactive"}, {"smiles": "COc1ccccc1NC(=O)c1ccc(-c2ccccc2[N+](=O)[O-])o1", "Potency": "inactive"}, {"smiles": "COc1ccc(CNC(=O)c2cc(-c3ccc(OC)c(OC)c3)on2)cc1", "Potency": "inactive"}, {"smiles": "CCOC(=O)c1cc(NC(=O)c2c(C)noc2C)cc(C(=O)OCC)c1", "Potency": "inconclusive: 20 µM [inhibitor, single point]"}, {"smiles": "CC(=O)Nc1ccc(S(=O)(=O)NC(CSc2ccc(C(=O)O)cc2[N+](=O)[O-])C(=O)O)cc1", "note": "(centres undefined)", "Potency": "inconclusive: 0.794 µM [inhibitor, full curve]"}, {"smiles": "Cc1ccc(Nc2nc(Cl)nc(NC3CCCCC3)n2)cc1", "Potency": "inconclusive: 3.98 µM [activator, single point]"}, {"smiles": "Cc1ccc(OCC(=O)Nc2ccccc2Sc2ccccc2)c([N+](=O)[O-])n1", "Potency": "inconclusive: 35.5 µM [inhibitor, single point]"}, {"smiles": "Cc1ccnc(NC(=O)Nc2ccc(F)cc2)c1", "Potency": "inconclusive: 25.1 µM [inhibitor, single point]"}, {"smiles": "S=c1[nH]nc(Cn2nnc3ccccc32)n1-c1ccc(Cl)cc1", "Potency": "inconclusive: 11.2 µM [inhibitor, partial curve]"}, {"smiles": "Cn1nnc(NCc2cc(Br)ccc2OCc2ccccc2F)n1", "Potency": "inconclusive: 1.12 µM [inhibitor, partial curve]"}, {"smiles": "CC(=O)c1ccc(Oc2cc(C)nc(N3CCOCC3)n2)cc1", "Potency": "inconclusive: 11.2 µM [activator, single point]"}, {"smiles": "Cc1ccc(-c2n[nH]c(=S)n2/N=C/c2sccc2C)cc1", "Potency": "inconclusive: 5.62 µM [inhibitor, single point]"}, {"smiles": "CCc1ccccc1N(C(C)=O)c1nc(CCl)cs1", "Potency": "inactive"}, {"smiles": "COC(=O)Nc1ccc2c(c1)Nc1ccccc1CC2", "Potency": "inconclusive: 35.5 µM [activator, single point]"}, {"smiles": "O=C1Cn2c(nc3ccccc32)-c2ccccc2N1", "Potency": "inconclusive: 10 µM [activator, partial curve]"}, {"smiles": "O=C(Nc1ccc(F)cc1)c1nc[nH]c1C(=O)Nc1ccc([N+](=O)[O-])cc1", "Potency": "active: 5.01 µM"}, {"smiles": "CCOC(=O)c1c(C)c(C(=O)NCc2cccs2)c(C)n1C", "Potency": "inconclusive: 15.8 µM [activator, partial curve, poor fit]"}, {"smiles": "CN1C(=O)/C(=N/OC(=O)c2ccccc2Br)c2ccccc21", "Potency": "inconclusive: 35.5 µM [inhibitor, single point]"}, {"smiles": "COc1cccc(COCCN2CCN(S(=O)(=O)c3ccc(C)cc3)CCC2=O)c1", "Potency": "inactive"}, {"smiles": "Cc1cc(C)n(-c2nc3ccccc3c(=O)n2OCC(=O)OCc2ccccc2)n1", "Potency": "active: 0.562 µM"}, {"smiles": "Cc1cc[n+](CC(=O)c2ccc(NC(=O)c3ccccc3)cc2)cc1", "Potency": "inactive"}, {"smiles": "Cc1ccc(N=C2NC(=O)S/C2=C\\c2ccco2)cc1", "Potency": "inactive"}, {"smiles": "CCOC1(OCC)C(c2ccc(Cl)cc2)C(C#N)(C#N)C1(OCC)OCC", "note": "(centres undefined)", "Potency": "active: 12.6 µM"}, {"smiles": "COc1ccc(OC)c(C(c2nnnn2Cc2ccccc2)N2CCC(C(N)=O)CC2)c1", "note": "(centres undefined)", "Potency": "inconclusive: 25.1 µM [activator, single point]"}, {"smiles": "CC(C)C(C(=O)Nc1nccs1)c1ccccc1", "note": "(centres undefined)", "Potency": "active: 11.2 µM"}, {"smiles": "Nc1ccccc1C(=O)NNc1ncc(C(F)(F)F)cc1Cl", "Potency": "active: 0.794 µM"}, {"smiles": "C=CCOc1c(Br)cc(/C=N/NC(=O)Cc2ccc(C(F)(F)F)cc2[N+](=O)[O-])cc1OC", "Potency": "inconclusive: 22.4 µM [inhibitor, single point]"}, {"smiles": "COc1cccc(NC(=O)Nc2nc(SC)ns2)c1", "Potency": "inconclusive: 8.91 µM [activator, partial curve, poor fit]"}, {"smiles": "Nc1cccnc1Sc1ccc([N+](=O)[O-])cn1", "Potency": "active: 3.98 µM"}, {"smiles": "Cc1ccc2c(CN(C)Cc3ccc(OC(F)F)cc3)cc(=O)oc2c1C", "Potency": "inconclusive: 35.5 µM [activator, single point]"}, {"smiles": "Cc1nc2ccc(NC(=O)c3ccc(Br)o3)cc2s1", "Potency": "inconclusive: 0.112 µM [activator, full curve, poor fit]"}, {"smiles": "Cn1c(=O)oc2cc(S(=O)(=O)Nc3ccccc3)ccc21", "Potency": "inactive"}, {"smiles": "Cc1ccc(C(=O)N/N=C2\\SCC(=O)N2c2cc(C)ccc2C)cc1", "Potency": "inconclusive: 12.6 µM [inhibitor, partial curve, poor fit]"}, {"smiles": "COc1ccc(C2CCCN2C(=S)Nc2ccc(C)cc2C)cc1OC", "note": "(centres undefined)", "Potency": "inconclusive: 15.8 µM [inhibitor, single point]"}, {"smiles": "CC1(OC(=O)C2CCCC2)C(=O)C=C2C=C(c3ccsc3)N(CC3CC3)C=C2C1=O", "note": "(centres undefined)", "Potency": "inactive"}, {"smiles": "COc1ccc(-n2nc(C(=O)c3cccs3)cc(-c3nc4ccccc4[nH]3)c2=N)cc1", "Potency": "active: 3.16 µM"}, {"smiles": "O=C(/C=C/c1ccc(Cl)cc1Cl)N1CCN(c2ccccc2[N+](=O)[O-])CC1", "Potency": "inconclusive: 17.8 µM [activator, single point]"}, {"smiles": "Cc1ccc(NC(=O)Cc2c[nH]c3ccccc23)cc1S(=O)(=O)N1CCCCCC1", "Potency": "inconclusive: 12.6 µM [activator, partial curve, poor fit]"}, {"smiles": "COc1ccc2[nH]c(C)c(CCNC(=S)Nc3ccccc3OC)c2c1", "Potency": "active: 10 µM"}, {"smiles": "CCCCNC(=O)CCC(=O)N1CCN(C(c2ccccc2)c2ccccc2)CC1", "Potency": "inconclusive: 2.82 µM [inhibitor, single point]"}, {"smiles": "CN1C(=O)C(C)(C)c2cc(S(=O)(=O)N3CCN(c4ccccc4)CC3)ccc21", "Potency": "inconclusive: 35.5 µM [inhibitor, single point]"}, {"smiles": "Cc1ccc(-c2nn(-c3ccccc3)cc2/C=N/n2c(-c3cccs3)n[nH]c2=S)cc1", "Potency": "inconclusive: 1.78 µM [inhibitor, full curve, poor fit]"}, {"smiles": "C#CCOc1ccc(/C=C2/C(=O)NN(c3ccc(F)cc3)C2=O)cc1OC", "Potency": "inactive"}, {"smiles": "COc1ccc(NC(=O)c2ccc(NC(=O)c3cccs3)cc2)cc1", "Potency": "active: 7.08 µM"}, {"smiles": "O=C(CN1C(=O)C2CCCCC2C1=O)N1CCN(c2ccccc2)CC1", "note": "(centres undefined)", "Potency": "inconclusive: 35.5 µM [activator, single point]"}, {"smiles": "Cc1oncc1C(=O)Nc1ccc(C(F)(F)F)cc1", "Potency": "inconclusive: 35.5 µM [activator, single point]"}, {"smiles": "N#Cc1c(NC(=O)C2CC(c3ccccc3O)=NO2)sc2c1CCC2", "note": "(centres undefined)", "Potency": "inconclusive: 25.1 µM [inhibitor, single point]"}, {"smiles": "Cc1oc(-c2cccc(Cl)c2)nc1CSCC(=O)O", "Potency": "active: 10 µM"}, {"smiles": "CC(C)(C)C(=O)OCCNc1nc(-c2ccccc2)nc2ccccc12", "Potency": "inconclusive: 14.1 µM [activator, single point]"}, {"smiles": "Cn1c(-c2ccccc2)cnc1SCC(=O)N1CCCCC1", "Potency": "active: 5.01 µM"}, {"smiles": "COCCOC(=O)c1[nH]c2c(c1C)C(=O)CC(c1cc(OC)c(OC)c(OC)c1)C2", "note": "(centres undefined)", "Potency": "inconclusive: 15.8 µM [activator, partial curve]"}, {"smiles": "O=C(Nc1nc(-c2ccc(Cl)s2)cs1)c1ccco1", "Potency": "inactive"}, {"smiles": "CC(=O)n1cc([C@H]2C=C(C(=O)Nc3ccccc3)O[C@@H](OCCCCO)C2)c2ccccc21", "Potency": "inconclusive: 35.5 µM [activator, single point]"}, {"smiles": "COc1ccc(C(=O)CCN2CCC(C)CC2)cc1", "Potency": "inconclusive: 12.6 µM [inhibitor, single point]"}, {"smiles": "CCOC(=O)c1c(N)sc2c1CCN(Cc1ccccc1)C2", "Potency": "inactive"}, {"smiles": "COCC(=O)N(Cc1nc2ccccc2c(=O)[nH]1)Cc1cccs1", "Potency": "inconclusive: 8.91 µM [inhibitor, partial curve, poor fit]"}, {"smiles": "CCN(C(=O)/C=C/c1ccc(OC)cc1)C1CCCCC1", "Potency": "inconclusive: 35.5 µM [activator, single point]"}, {"smiles": "CC(CN1CCOCC1)(NS(=O)(=O)c1ccccc1)c1ccccc1", "note": "(centres undefined)", "Potency": "inconclusive: 17.8 µM [activator, partial curve]"}, {"smiles": "COc1ccc2c(-c3ccccc3)cc(SCC(=O)N(C)C3CCS(=O)(=O)C3)nc2c1", "note": "(centres undefined)", "Potency": "active: 10 µM"}, {"smiles": "O=C(NCc1cccnc1)C1CC(c2ccc(Cl)c(Cl)c2)=NO1", "note": "(centres undefined)", "Potency": "inconclusive: 35.5 µM [activator, single point]"}, {"smiles": "CCOC(=O)c1cccc(NC(=O)CCc2nc(-c3ccc(C)cc3)no2)c1", "Potency": "active: 3.16 µM"}, {"smiles": "COc1cccc(CN(C)Cc2nc(Cc3ccccc3Cl)no2)c1", "Potency": "inactive"}, {"smiles": "COC(=O)c1c(-c2ccccc2Cl)noc1/C=C/N(C)C", "Potency": "inconclusive: 20 µM [inhibitor, single point]"}, {"smiles": "COC(=O)CC1COc2ccccc2N1S(=O)(=O)c1ccc(Br)cc1", "note": "(centres undefined)", "Potency": "inactive"}]}]}
